Experimental findings from US11707557B2, “Compositions and devices incorporating water-insoluble therapeutic agents and methods of the use thereof” (COOK MEDICAL TECHNOLOGIES LLC, priority 2014, dated 2023) are described below.

For series [1] the following is noted: lidocaine in PEG 300 with 25% w/w EGCG or tannic acid.
Series [2] can be described thus: Liquid pharmaceutical excipients in gallate based pastes (solubility, viscosity score, pellet in water). Type of series: physicochemical. An excerpt:
Various additional water/soluble/miscible liquids were explored (in addition to propylene glycol and polyethylene glycol) as excipients in gallate based pastes.
A viscosity score was established as follows: 1) Fluid—22 gauge needle; 2) Semi Viscous—18 gauge needle; 3) Viscous—16 gauge needle; 4) Waxy Pellet in water.

For `CCN(CC)CC(=O)Nc1c(C)cccc1C` [lidocaine], in the series on pig skin, the “uptake in the 0-250 μm layer compared to Glaxal base and Plogel controls” value is listed as “higher uptake levels”; the “uptake in the 0-250 μm layer compared to the control formulations” value is listed as “higher levels of uptake”. For the same compound, the “time of disintegration/dissolution of paste in PBS” value in series [1] worked out at 3 days.

For the compound Tween 80, the “Solubility of lidocaine at 10% loading” value in series [2] was “Yes”.
